No constants are given. Whether binding was seen depends on the method and setting. For some of these results: Binding can be weak; no strength is given.

Assay [1] concerns the target Muc2 of rabbit colonic mucus (rabbit). Put plainly: immunofluorescence colocalization on PFA-fixed rabbit colon.
The target in assay [2] is Muc2 of guinea pig colonic mucus (guinea pig). Put plainly: fluorescent staining of PFA-fixed colon; attributed to Muc2 in paragraph 190.
The target in assay [3] is Muc2 of rabbit colonic mucus (rabbit). The assay is described as above.
Assay [4] addresses Muc2 of rabbit ileal mucus (rabbit). Kind of assay: fluorescent staining of PFA-fixed rabbit ileum, confocal microscopy.

B1: Cy5-MUB70 (peptide)
peptide: CVHVQYIDGETDQMLRQDDLDGYTDETIPYSTAEGIKKFEGDGYELFKDNFPAGEKFDNDDTNDQFYTVIF
modifications: Cy5 mono maleimide on the added N-terminal Cys
notes: Chemically synthesized; also called MUB70-Cy5; Cy5-labeled MUB
Regarding B1, the binding result in assay [1] is “binds”; in assay [2] it was “binds”; in assay [3], “binds”; in assay [4], “no binding (tested: 1 µg/mL)”.

Values taken from patent US20140336119A1 (INSTITUT PASTEUR, published 2014).
